From ChEMBL document CHEMBL3988442, “University of Dundee, Small-Polar-MMV Screening Library” (2021).

The filed quantity is “Percent Effect” (%). The record does not define 0% and 100%; most values in the screen are far below 50% and negative numbers occur (in some assays of this library far below -100). This is an unselected part of the compounds tested.

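Whole-parasite assay of Trypanosoma brucei over 72 hours; the read-out is not stated. Tested at 30 µM. The record gives no direction; compounds that gave an IC50 in retests scored well above the rest, so higher reads as stronger inhibition. Values scatter widely below zero; nearly all retest evidence comes from the higher of the two concentrations used. Of about 64,000 compounds tested this way, about 940 (1.5%) reached 50% or more in at least one test.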

SMILES,Percent Effect
Cc1cc(CN2CCN(c3nn4cc(C)nc4s3)CC2)on1,6.961
CCc1noc(C(C)N2CCN(Cc3ncc(C(C)(C)C)o3)CC2)n1 (centres undefined),-65.17
CCc1oc(C(=O)N[C@@H]2c3ccccc3C[C@@H]2O)cc1C,-58.91
CC(C)=CCS(=O)(=O)Cc1noc(CC(C)C)n1,-35.09
Cc1nnc(CSCc2ccc(OCC(F)(F)F)nc2)o1,-11.27
CCc1cc(-c2ccnc3c2ccn3C)nc(N2CCOCC2)n1,-28.1
Cn1ccnc1C(=O)N1CCCC(Cn2cc(CO)nn2)C1 (centres undefined),-21.68
CN(C)C(=O)CN1CCC2(CCN(S(C)(=O)=O)CC2)C1=O,13.62
O=C(O)C(F)(F)F.[H][C@@]12C[C@H](C(=O)NC)CN(CCOc3ccc(Cl)cc3)[C@]1([H])CCO2,-140.6
CCN(CC)Cc1ccc(C(=O)N2CCN(CC(C)O)CC2)o1 (centres undefined),-2.344
Cc1nc(C2CCCN(C(=O)C3=NN(C(C)C)C(=O)CC3)C2)no1 (centres undefined),-20.28
COc1ncccc1CN1Cc2nccn2CC(CN2CCCC2)C1 (centres undefined),-89.93
Cc1nnc(C(C)N2CCN(Cc3ccc(C#N)cc3)CC2)o1 (centres undefined),-40.12
Cc1csc2c(=O)n(C(C)Cc3cccnc3)cnc12 (centres undefined),-4.653
CC(=O)NCCC1CCCCN1S(=O)(=O)c1cccc(F)c1 (centres undefined),-52.12
Cc1c(C)n(CC(O)CN2CCC(O)CC2)c2c(Cl)cccc12 (centres undefined),19.23
CC(C)c1csc(C(=O)N2CCCC(Cn3cc(CO)nn3)C2)n1 (centres undefined),-4.729
CC(CNS(=O)(=O)CCCC#N)c1ccsc1 (centres undefined),-20.46
[H][C@]12C[C@@H](Cn3cncn3)N(C(C)=O)[C@@]1([H])CCN(c1ncccn1)C2,-0.2241
CC(=O)N1CCN(C(=O)c2cnn(-c3ccccc3Cl)c2)CC1,7.565
CN(C(=O)Cc1cccs1)C1CCN(c2ccccn2)CC1,14.31
Cc1cnn(C2CN(CC(=O)NCCc3cccs3)C2)c1,17.48
Cc1cc2c(cc1CN1CCCCC1CCn1ccnc1C)OCO2 (centres undefined),21.43
Cc1ccc(-n2nnc(C(=O)O)c2C)c(C)c1,-42.24
COc1ccc([C@@H](C)n2ccnc2-c2cc3n(n2)CCCNC3)cc1,-46.62
O=C(c1ccc(C2CCCO2)s1)N1CCS(=O)(=O)CC1 (centres undefined),10.75
O=c1cc(CN(Cc2ccco2)C2CC2)nc2ccc(Br)cn12,-13.27
O=C(CSc1ccccc1)Nc1cnn(CC(=O)N2CCCO2)c1,-6.205
Cc1nc(NCc2ccc(F)cc2)cc(C2CCCN2)n1.Cl (centres undefined),-9.094
C[C@@H](N)C(=O)N1CCC(c2[nH]ncc2-c2ccccc2)CC1,-46.19
[H][C@]12CCN(C(=O)c3cc[nH]n3)CC[C@@]1([H])S(=O)(=O)N(Cc1cccnc1)C2,-40.12
COCCCN1CCCC(c2nccn2CC2CCC2)C1 (centres undefined),-25.4
COc1ccccc1C1(CNc2snc(Cl)c2C#N)CCOCC1,0.1302
N#Cc1cccc(-c2ncnn2CC2(O)CCCCC2)c1,-17.47
CCC(=O)N1CCCC(Cn2cc(-c3ccc(F)cc3)nn2)C1 (centres undefined),5.398
CC(C)CCN(C(=O)c1cc2c([nH]c1=O)CCCC2=O)C1CC1,-15.74
COc1ncc(C(=O)N2CCC(c3nc(C)n4ccsc34)CC2)cn1,-1.911
COCCn1ccnc1C1CCN(C(=O)CSc2nnc(C)s2)CC1,-4.515
CCn1ncc(Nc2[nH]cnc3nc(C)nc2-3)c1C,-29.44
COc1ccc(C2(NCc3noc(C4CC4)n3)CCOCC2)cc1,-19.58
COc1cc(N2CCC3(CC2)OCC(=O)NC3C)ncn1 (centres undefined),1.92
CN(CCc1cnn(C)c1)C(=O)CN1C(=O)OC[C@@H]1c1ccccc1,-52.29
CC[C@@H](C)[C@H](NC(=O)CCn1cc(C(C)=O)c2ccccc21)C(=O)O,-1.617
CCN1CCN2CCCN(S(=O)(=O)c3ccc(S(C)(=O)=O)cc3)C2C1=O (centres undefined),30.28
CNS(=O)(=O)c1cccc(CNc2cc(C(F)(F)F)ccn2)c1,-23.52
CCOC(=O)CNC(=O)NCc1cccn1Cc1ccccc1F,-59.33
[H][C@@]12CCCO[C@]1([H])[C@H](N(C)Cc1cccnc1)CN2Cc1ccccn1,20.05
CSc1ncccc1C(=O)Nc1ccc(Cn2ccccc2=O)cc1,-15.55